PubChem BioAssay AID1259299, Sanger Institute – 2017
Shown is an unselected part of 794 reagents. In the full data, 9 (1.1%) are marked active. 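Calls rest on knock-down alone; synergy scores play no part in calls, and no gene passed the synergy cut.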 Unmarked entries are inactive. No viability above 1 is reported: the scale is capped. Further read-outs or replicates are left out here. Reagent sequences are not shown. Not stated in the record: the amount of reagent, the time to read-out.

Test: 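Knock-down screen of kinome and colorectal mutation genes alongside three targeted drugs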 (primary screen)
System: human CAR1 colorectal cancer cells
Knock-down reagent: siRNA pool against human genes
Conditions: anchor drug BYL719 1 µM, cetuximab 5 µg/ml or trametinib 10 nM, or DMSO vehicle alone; exposure length not given
Measured: 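Mean replicate viability versus non-targeting controls, turned into robust z-scores, plus drug synergy scores for BYL719, cetuximab and trametinib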
Direction: viability robust z-score, knock-down alone and viability, knock-down alone (DMSO): higher = more viable cells
Units: viability, knock-down alone (DMSO) in fraction of control
Hit rule: 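a gene is called essential if its knock-down-alone viability z-score drops under -3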
Calls: active = essential (knock-down alone); inactive = no change

{"Gene": "INSRR (insulin receptor related receptor)", "viability robust z-score, knock-down alone": 0.687, "viability, knock-down alone (DMSO)": 0.991}
{"Gene": "CSNK2B (casein kinase 2 beta)", "viability robust z-score, knock-down alone": -1.84, "viability, knock-down alone (DMSO)": 0.757}
{"Gene": "FXR1 (FMR1 autosomal homolog 1)", "viability robust z-score, knock-down alone": 0.789, "viability, knock-down alone (DMSO)": 1}
{"Gene": "TEK (TEK receptor tyrosine kinase)", "viability robust z-score, knock-down alone": 0.789, "viability, knock-down alone (DMSO)": 1}
{"Gene": "CIB2 (calcium and integrin binding family member 2)", "viability robust z-score, knock-down alone": -0.232, "viability, knock-down alone (DMSO)": 0.906}
{"Gene": "MPP3 (MAGUK p55 scaffold protein 3)", "viability robust z-score, knock-down alone": -2.16, "viability, knock-down alone (DMSO)": 0.727}
{"Gene": "TPK1 (thiamin pyrophosphokinase 1)", "viability robust z-score, knock-down alone": -0.469, "viability, knock-down alone (DMSO)": 0.884}
{"Gene": "PRKCZ (protein kinase C zeta)", "viability robust z-score, knock-down alone": -0.782, "viability, knock-down alone (DMSO)": 0.855}
{"Gene": "CDKL1 (cyclin dependent kinase like 1)", "viability robust z-score, knock-down alone": -0.0154, "viability, knock-down alone (DMSO)": 0.926}
{"Gene": "DYRK1B", "viability robust z-score, knock-down alone": -0.0226, "viability, knock-down alone (DMSO)": 0.925}
{"Gene": "EIF2AK2 (eukaryotic translation initiation factor 2 alpha kinase 2)", "viability robust z-score, knock-down alone": 0.789, "viability, knock-down alone (DMSO)": 1}
{"Gene": "CDK8 (cyclin dependent kinase 8)", "viability robust z-score, knock-down alone": 0.789, "viability, knock-down alone (DMSO)": 1}
{"Gene": "EFNA5 (ephrin A5)", "viability robust z-score, knock-down alone": -0.318, "viability, knock-down alone (DMSO)": 0.898}
{"Gene": "PRKCSH (PRKCSH beta subunit of glucosidase II)", "viability robust z-score, knock-down alone": 0.714, "viability, knock-down alone (DMSO)": 0.993}
{"Gene": "SGK3 (serum/glucocorticoid regulated kinase family member 3)", "viability robust z-score, knock-down alone": 0.412, "viability, knock-down alone (DMSO)": 0.965}
{"Gene": "PKN2 (protein kinase N2)", "viability robust z-score, knock-down alone": 0.269, "viability, knock-down alone (DMSO)": 0.952}
{"Gene": "PRKD2 (protein kinase D2)", "viability robust z-score, knock-down alone": 0.789, "viability, knock-down alone (DMSO)": 1}
{"Gene": "GNE", "viability robust z-score, knock-down alone": 0.591, "viability, knock-down alone (DMSO)": 0.982}

Quoted from above, 2 entries:
{"Gene": "CSNK2B (casein kinase 2 beta)", "viability robust z-score, knock-down alone": -1.84, "viability, knock-down alone (DMSO)": 0.757}
{"Gene": "FXR1 (FMR1 autosomal homolog 1)", "viability robust z-score, knock-down alone": 0.789, "viability, knock-down alone (DMSO)": 1}

Continued.
{"Gene": "NME6 (NME/NM23 nucleoside diphosphate kinase 6)", "viability robust z-score, knock-down alone": -1.65, "viability, knock-down alone (DMSO)": 0.775}
{"Gene": "SPEG (striated muscle enriched protein kinase)", "viability robust z-score, knock-down alone": 0.789, "viability, knock-down alone (DMSO)": 1}
{"Gene": "TEX14 (testis expressed 14, intercellular bridge forming factor)", "viability robust z-score, knock-down alone": 0.153, "viability, knock-down alone (DMSO)": 0.941}
{"Gene": "MAP2K1 (mitogen-activated protein kinase kinase 1)", "viability robust z-score, knock-down alone": -0.695, "viability, knock-down alone (DMSO)": 0.863}
{"Gene": "CAMK2D (calcium/calmodulin dependent protein kinase II delta)", "viability robust z-score, knock-down alone": 0.789, "viability, knock-down alone (DMSO)": 1}
{"Gene": "PRKD3 (protein kinase D3)", "viability robust z-score, knock-down alone": -1.05, "viability, knock-down alone (DMSO)": 0.83}
{"Gene": "ELF3 (E74 like ETS transcription factor 3)", "viability robust z-score, knock-down alone": -2.27, "viability, knock-down alone (DMSO)": 0.718}
{"Gene": "BCR (BCR activator of RhoGEF and GTPase)", "viability robust z-score, knock-down alone": -1.59, "viability, knock-down alone (DMSO)": 0.78}
{"Gene": "RPS6KA1 (ribosomal protein S6 kinase A1)", "viability robust z-score, knock-down alone": 0.576, "viability, knock-down alone (DMSO)": 0.98}
{"Gene": "TJP2 (tight junction protein 2)", "viability robust z-score, knock-down alone": -1.51, "viability, knock-down alone (DMSO)": 0.788}
